Paper PMC12670160, “A drug-repurposing screen of FDA- and EMA-approved drugs identifies two NF-κB inhibitors active against eumycetoma” (Journal of Antimicrobial Chemotherapy, 2025)
Structures can show the parent of a compound that is named as a salt. Screen size: about 5,300 compounds; about 130 (2.5%) showed an effect of 50% or more. This is one part of the list.

The compounds below were run on M. mycetomatis strain mm55. Conditions: primary screen, metabolic activity vs growth control; 96 h, 2 µM; inhibitor.

Row | Compound | % viability [%]
1 | CCCCn1ccc(N2CCC(c3ccccc3)CC2)c(Cl)c1=O [ONC0000859, jnj40411813] | 84.4
2 | CC(=O)O/N=C1\C(=O)N(Cc2cc(Cl)ccc2Cl)c2ccc(Cl)cc21 [ONC0005151, ldn57444] | 84.8
3 | OC(CCN1CCCCC1)(c1ccccc1)C1CC2C=CC1C2 (stereo not drawn) [ONC0001808, biperiden hydrochloride] | 61.17
4 | CCN(CC)CC#CCOC(=O)C(O)(c1ccccc1)C1CCCCC1 (stereo not drawn) [ONC0004166, oxybutynin chloride] | 117.4
5 | O=C(Cc1cccc(OC(F)(F)F)c1)Nc1ccc(CCCCc2nnc(NC(=O)Cc3ccccn3)s2)nn1 [ONC0002070, telaglenastat] | 82.13
6 | Cc1ncc([N+](=O)[O-])n1CCO [ONC0000454, metronidazole] | 90.94
7 | Cc1nc(Nc2ccc(F)cc2)nc(N2CCc3ccccc3C2C)c1C (stereo not drawn) [ONC0000346, revaprazan hydrochloride] | 77.77
8 | CN(C)CCOC1=Cc2ccccc2Sc2ccc(Cl)cc21 [ONC0002335, zotepine] | 84.64
9 | CCN(Cc1ccncc1)C(=O)C(CO)c1ccccc1 (stereo not drawn) [ONC0003229, tropicamide] | 99.09
10 | O=C(NCCNCC(O)COc1ccc(O)cc1)N1CCOCC1 (stereo not drawn) [ONC0002663, xamoterol fumarate] | 68.23
11 | CC(C)(C)NCC(O)COc1cc(Cl)ccc1Cl (stereo not drawn) [ONC0002155, cloranolol] | 91.06
12 | C[C@]12CC[C@H](O)CC1=CCC1C2CC[C@]2(C)C(n3cnc4ccccc43)=CCC12 (stereo partly drawn) [ONC0005266, galeterone tok001] | 144.8
13 | N=C(N)c1cc2ccc(OC(=O)c3cccs3)cc2s1 [ONC0004238, bcx 1470 methanesulfonate] | 62.8
14 | Oc1cc2c(cc1O)[C@H]1c3ccccc3CN[C@@H]1CC2 (racemic) [ONC0000064, dihydrexidine] | 117.8
15 | CC(=O)O[C@H]1C[C@H](O[C@H]2[C@@H](O)C[C@H](O[C@H]3[C@@H](O)C[C@H](O[C@H]4CC[C@@]5(C)[C@H](CC[C@@H]6[C@@H]5C[C@@H](O)[C@]5(C)[C@@H](C7=CC(=O)OC7)CC[C@]65O)C4)O[C@@H]3C)O[C@@H]2C)O[C@H](C)[C@H]1O[C@@H]1O[C@H](CO)[C@@H](O)[C@H](O)[C@H]1O [ONC0000550, lanatoside c] | 73.77
16 | CN1C2CCCC1CC(NC(=O)c1nn(C)c3ccccc13)C2 (stereo not drawn) [ONC0003247, granisetron hydrochloride] | 147.1
17 | Cn1nc(-c2cccc(F)c2)n(C)c1=S [ONC0003577, suritozole] | 82.85
18 | COc1ccc2[nH]cc(CCNC(C)=O)c2c1 [ONC0001354, melatonin] | 81.35
19 | Cc1ccc(C(=O)c2cc(O)c(O)c([N+](=O)[O-])c2)cc1 [ONC0004575, tolcapone] | 67.61
20 | NC[C@H]1O[C@H](O[C@H]2[C@H](O[C@@H]3O[C@H](CO)[C@@H](O)[C@H]3O)[C@@H](O)[C@H](N)C[C@@H]2N)[C@H](N)[C@@H](O)[C@@H]1O [ONC0001104, ribostamycin sulfate] | 39.68

In the list so far, 9 have nitrogen in an aromatic ring:
Row | Compound | % viability [%]
1 | CCCCn1ccc(N2CCC(c3ccccc3)CC2)c(Cl)c1=O [ONC0000859, jnj40411813] | 84.4
5 | O=C(Cc1cccc(OC(F)(F)F)c1)Nc1ccc(CCCCc2nnc(NC(=O)Cc3ccccn3)s2)nn1 [ONC0002070, telaglenastat] | 82.13
6 | Cc1ncc([N+](=O)[O-])n1CCO [ONC0000454, metronidazole] | 90.94
7 | Cc1nc(Nc2ccc(F)cc2)nc(N2CCc3ccccc3C2C)c1C (stereo not drawn) [ONC0000346, revaprazan hydrochloride] | 77.77
9 | CCN(Cc1ccncc1)C(=O)C(CO)c1ccccc1 (stereo not drawn) [ONC0003229, tropicamide] | 99.09
12 | C[C@]12CC[C@H](O)CC1=CCC1C2CC[C@]2(C)C(n3cnc4ccccc43)=CCC12 (stereo partly drawn) [ONC0005266, galeterone tok001] | 144.8
16 | CN1C2CCCC1CC(NC(=O)c1nn(C)c3ccccc13)C2 (stereo not drawn) [ONC0003247, granisetron hydrochloride] | 147.1
17 | Cn1nc(-c2cccc(F)c2)n(C)c1=S [ONC0003577, suritozole] | 82.85
18 | COc1ccc2[nH]cc(CCNC(C)=O)c2c1 [ONC0001354, melatonin] | 81.35

In another format: results already given
O=C(Cc1cccc(OC(F)(F)F)c1)Nc1ccc(CCCCc2nnc(NC(=O)Cc3ccccn3)s2)nn1 [ONC0002070, telaglenastat]
  % viability [%]: 82.13
Cc1ncc([N+](=O)[O-])n1CCO [ONC0000454, metronidazole]
  % viability [%]: 90.94

Later entries:

Row | Compound | % viability [%]
21 | O=C(Nc1ccc(Cl)cc1)Nc1cccc(-c2cccc(N3CCCC3)n2)c1 [ONC0003054, psncbam1] | 61.4
22 | O=C(N/N=C/c1ccc(O)c(O)c1)c1cc2ccccc2cc1O [ONC0004433, dynasore] | 113
23 | BrC1C(Br)C(Br)C(Br)C(Br)C1Br (stereo not drawn) [ONC0001305, 123456hexabromocyclohexane] | 67.14
24 | O=S(=O)(O)c1ccc(-c2c3nc(c(-c4ccc(S(=O)(=O)O)cc4)c4ccc([nH]4)c(-c4ccc(S(=O)(=O)O)cc4)c4nc(c(-c5ccc(S(=O)(=O)O)cc5)c5ccc2[nH]5)C=C4)C=C3)cc1 [ONC0003489, tpps4] | 90.84
25 | CS(=O)(=O)Nc1ccc(-c2coc3cc(OCc4cccc(C(=O)O)c4)ccc3c2=O)cc1 [ONC0002622, cvt10216] | 92.76
26 | O=C1Nc2ccccc2/C1=C1/Nc2ccccc2/C1=N\O [ONC0001436, indirubin3monoxime] | 53.18
27 | C=CC[C@@H]1/C=C(\C)C[C@H](C)C[C@H](OC)[C@H]2O[C@@](O)(C(=O)C(=O)N3CCCC[C@H]3C(=O)O[C@H](/C(C)=C/[C@@H]3CC[C@@H](O)[C@H](OC)C3)[C@H](C)[C@@H](O)CC1=O)[C@H](C)C[C@@H]2OC [ONC0001947, tacrolimus] | 110.9
28 | c1cnc(SCc2cccnc2)nc1 [ONC0002754] | 103.8
29 | O=C(O)CCNc1cc(N2CCc3ccccc3CC2)nc(-c2ccccn2)n1 [ONC0001788, gskj1] | 89.17
30 | COc1ccc(COc2ccc(Cc3cnc(N)nc3N)cc2OC)cc1 [ONC0004414, gw2580] | 95.16
31 | Cc1cc([N+](=O)[O-])ccc1NS(=O)(=O)c1cc(Cl)ccc1Cl [ONC0001886, fh535] | 115.4
32 | COc1ccc(C(=O)NCc2cccnc2)cc1C(=O)NCc1cccnc1 [ONC0002144, picotamide] | 72.45
33 | Cc1c(Cl)cccc1S(=O)(=O)Nc1nc(CC(=O)N2CCN(C)CC2)cs1 [ONC0001229, bvt 2733] | 120.1
34 | Cc1nc(NS(=O)(=O)c2ccc(N)cc2)oc1C [ONC0005495, sulfamoxole] | 107.5
35 | C=C(Nc1ccc(OCC)cc1)Nc1ccc(OCC)cc1 [ONC0005342, phenacaine] | 118.6
36 | OCC[N+]12CN3CN(CN(C3)C1)C2 [ONC0001499, y11] | 85.89
37 | CCCCN1CCCC1CNC(=O)c1cc(C#N)c2ccccc2c1OC (stereo not drawn) [ONC0001239, nafadotride] | 68.92
38 | COC(=O)C1=C(C)NC(C)=C(C(=O)O[C@@H]2CCCN(Cc3ccccc3)C2)[C@@H]1c1cccc([N+](=O)[O-])c1 (racemic) [ONC0004618, benidipine hydrochloride] | 66.69
39 | Cc1cc(O)c(-c2ccc([C@@H](C)CN)cc2)c2c1[nH]c(=O)c1sccc12 [ONC0001173, ots514] | 81.93
40 | O=C(O)c1ccc2[nH]cc(CCCCN3CC=C(c4ccccc4)CC3)c2c1 [ONC0004451, carmoxirole] | 126.8

Row | Compound | % viability [%]
41 | CC(=O)Nc1nc(C)c(-c2ccc(Cl)c(S(=O)(=O)NCCO)c2)s1 [ONC0004891, pik93] | 111.7
42 | CN(Cc1ccccc1)C(=O)[C@H](Cc1ccc2ccccc2c1)NC(=O)[C@@H]1CCCN1C(=O)Nc1ccccc1[N+](=O)[O-] [ONC0003027, sdznkt343] | 140.9
43 | O=c1c(O)c(-c2ccc(O)cc2O)oc2cc(O)cc(O)c12 [ONC0005252, morin hydrate aurantica] | 114.3
44 | COc1ccc(C2CNC(=O)C2)cc1OC1CCCC1 (stereo not drawn) [ONC0004062, rolipram] | 112.2
45 | OC[C@H]1O[C@@H](Oc2cc(O)cc(/C=C/c3ccc(O)cc3)c2)[C@H](O)[C@@H](O)[C@@H]1O [ONC0004966, polydatinpiceid] | 66.69
46 | COc1ccc2nc3c(c(N)c2c1)CCCC3 [ONC0003701, 7methoxytacrine] | 109.8
47 | NC(=O)NCCCC(N)C(=O)O (stereo not drawn) [ONC0003865, lcitrulline] | 65.76
48 | CCOC(=O)Nc1ccc2c(c1)N(C(=O)CN(CC)CC)c1ccccc1CC2 [ONC0001397, cinpa1] | 105.8
49 | Nc1c(S(=O)(=O)O)cc(Nc2cccc3ccccc23)c2c1C(=O)c1ccccc1C2=O [ONC0003059, psb06126] | 88.48
50 | CC(SC(=O)c1cccs1)C(=O)NCC(=O)O (stereo not drawn) [ONC0003330, stepronin] | 68.94
51 | Cc1cn2nc([C@@H]3CCCCN3C(=O)c3cc(Cl)ccc3NS(C)(=O)=O)cc2nc1N1CC[C@H](N)C1 [ONC0000861, presatovir] | 79.82
52 | COc1cc(C(=O)NCC2(N(C)C)CCCC2)cc(OC)c1OCc1ccccc1 [ONC0001731, org25543] | 88.88
53 | COc1ccc(F)c(F)c1C(=O)c1cnc(NC2CCN(S(C)(=O)=O)CC2)nc1N [ONC0005102, r547] | 97.1
54 | CN(C)N(C)C(=O)[C@@]1(Cc2ccccc2)CCCN(C(=O)[C@@H](Cc2c[nH]c3ccccc23)NC(=O)C(C)(C)N)C1 [ONC0000737, anamorelin] | 94.91
55 | CCOC(=O)[C@H](CCc1ccccc1)N[C@H]1CS[C@H](c2cccs2)CN(CC(=O)O)C1=O [ONC0004925, temocapril hcl] | 86.58
56 | Cl.c1ccc(C2CNCc3ccccc32)cc1 (stereo not drawn) [ONC0002642, 4phenyl1234tetrahydroisoquinoline] | 64.91
57 | c1ccc2c(c1)[I+]c1ccccc1-2 [ONC0002720, diphenyleneiodonium] | 44.4
58 | NC(=O)c1ccc([N+](=O)[O-])cc1Cl [ONC0002900, aklomide] | 107.5
59 | CC(C)[C@H](N)C(=O)OCC(CO)OCn1cnc2c(=O)nc(N)[nH]c21 (stereo partly drawn) [ONC0002343, valganciclovir hydrochloride] | 62.06
60 | CCN(CC)CC1CCN(c2ncc3ncnc(Nc4ccc(F)c(Cl)c4)c3n2)CC1 [ONC0003775, bibu1361] | 116.3
